# Positions count from the first letter of the chain named. The list shows a part of the results. For part of these data: At the low end of the ranking the order means little. For part of these data: The exact form of the protein is not confirmed.
# Tests used:
# Conditions in all cases: yeast three-hybrid, YBZ-1, SC-Leu-His + 0.5 mM 3-AT, 4 days
# [1] = target: T1, PUM1 PUF domain R3-THE R4-TFR R7-NPG C935T + R936H + Q939E + N971T + H972F + Q975R + S1079N + N1080P + E1083G (Homo sapiens) (UniProt Q14671)
# T1 sequence: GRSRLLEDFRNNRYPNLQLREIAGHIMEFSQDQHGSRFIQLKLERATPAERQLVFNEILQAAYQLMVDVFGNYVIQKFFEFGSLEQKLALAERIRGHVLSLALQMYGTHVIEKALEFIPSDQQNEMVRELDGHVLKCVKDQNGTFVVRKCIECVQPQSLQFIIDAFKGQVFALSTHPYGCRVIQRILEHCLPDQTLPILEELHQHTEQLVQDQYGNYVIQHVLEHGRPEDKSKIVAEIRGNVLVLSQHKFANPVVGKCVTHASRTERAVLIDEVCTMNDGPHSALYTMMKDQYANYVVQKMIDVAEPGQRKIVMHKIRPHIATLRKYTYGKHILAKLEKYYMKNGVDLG
# [2] = target: T2, PUM1 PUF domain R5-PHQ R6-SWD C1007P + R1008H + N1043S + Y1044W + Q1047D (UniProt Q14671)
# T2 sequence: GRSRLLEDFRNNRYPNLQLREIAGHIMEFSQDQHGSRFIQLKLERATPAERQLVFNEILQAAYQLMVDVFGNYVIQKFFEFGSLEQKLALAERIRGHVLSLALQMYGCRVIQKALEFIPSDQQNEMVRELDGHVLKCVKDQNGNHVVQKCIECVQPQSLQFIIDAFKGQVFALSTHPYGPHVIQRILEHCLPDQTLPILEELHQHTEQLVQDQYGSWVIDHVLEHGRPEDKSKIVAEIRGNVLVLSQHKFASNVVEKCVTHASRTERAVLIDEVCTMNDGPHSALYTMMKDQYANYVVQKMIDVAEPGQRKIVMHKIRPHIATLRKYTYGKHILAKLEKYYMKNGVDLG
# [3] = target: T3, PUM1 PUF domain R3-THE R4-TFR C935T + R936H + Q939E + N971T + H972F + Q975R (UniProt Q14671)
# T3 sequence: T1 sequence with N252S, P253N, G256E
# [4] = target: T4, PUM1 PUF domain R6-SWD R7-NPG N1043S + Y1044W + Q1047D + S1079N + N1080P + E1083G (Homo sapiens) (UniProt Q14671)
# T4 sequence: T2 sequence with P180C, H181R, S252N, N253P, E256G
# [5] = target: T5, PUM1 PUF domain R3-THE R4-TFR R7-NPG C935T + R936H + Q939E + N971T + H972F + Q975R + S1079N + N1080P + E1083G (UniProt Q14671)
# T5 sequence: T1 sequence
# [6] = target: T6, PUM1 PUF domain R6-SWD R7-NPG N1043S + Y1044W + Q1047D + S1079N + N1080P + E1083G (UniProt Q14671)
# T6 sequence: T2 sequence with P180C, H181R, S252N, N253P, E256G
# [7] = target: T7, PUM1 PUF domain R8-GWR N1122G + Y1123W + Q1126R (UniProt Q14671)
# T7 sequence: T2 sequence with P180C, H181R, S216N, W217Y, D220Q, N295G, Y296W, Q299R
sequence,measurement,setting,value
GGCUAGAACUAGUGGAUCCCCCGGCGCCCGGCGGCUCGAGCCCGGGUAAGCUUCAAAAGUCUGCAUGCCGCCGGGCGCCAUGCCUGCAGGUCGACUCUAGAAAACAUG,binding signal (log2 enrichment (interaction score)),[1],< -1.79
GGCUAGAACUAGUGGAUCCCCCGGCGCCCGGCGGCUCGAGCCCGGGUAAGUUUAAAGGGUCUGCAUGCCGCCGGGCGCCAUGCCUGCAGGUCGACUCUAGAAAACAUG,binding signal (log2 enrichment (interaction score)),[1],-1.3
GGCUAGAACUAGUGGAUCCCCCGGCGCCCGGCGGCUCGAGCCCGGGUAAGUUAAGGUAGUCUGCAUGCCGCCGGGCGCCAUGCCUGCAGGUCGACUCUAGAAAACAUG,binding signal (log2 enrichment (interaction score)),[1],-1.92
same,binding signal (log2 enrichment (interaction score)),[2],< -8.49
GGCUAGAACUAGUGGAUCCCCCGGCGCCCGGCGGCUCGAGCCCGGGUAAGUUUUCGGCGUCUGCAUGCCGCCGGGCGCCAUGCCUGCAGGUCGACUCUAGAAAACAUG,binding signal (log2 enrichment (interaction score)),[1],-1.4
GGCUAGAACUAGUGGAUCCCCCGGCGCCCGGCGGCUCGAGCCCGGGUAAGUCUCAAAAGUCUGCAUGCCGCCGGGCGCCAUGCCUGCAGGUCGACUCUAGAAAACAUG,binding signal (log2 enrichment (interaction score)),[1],< -1.97
same,binding signal (log2 enrichment (interaction score)),[2],-7.05
GGCUAGAACUAGUGGAUCCCCCGGCGCCCGGCGGCUCGAGCCCGGGUAAGUCUGAGUAGUCUGCAUGCCGCCGGGCGCCAUGCCUGCAGGUCGACUCUAGAAAACAUG,binding signal (log2 enrichment (interaction score)),[3],-8.04
same,binding signal (log2 enrichment (interaction score)),[2],-6.87
same,binding signal (log2 enrichment (interaction score)),[4],-1.45
GGCUAGAACUAGUGGAUCCCCCGGCGCCCGGCGGCUCGAGCCCGGGUAAGCUGAUGACGUCUGCAUGCCGCCGGGCGCCAUGCCUGCAGGUCGACUCUAGAAAACAUG,binding signal (log2 enrichment (interaction score)),[1],-1.96
GGCUAGAACUAGUGGAUCCCCCGGCGCCCGGCGGCUCGAGCCCGGGUAAGACGGAAUCGUCUGCAUGCCGCCGGGCGCCAUGCCUGCAGGUCGACUCUAGAAAACAUG,binding signal (log2 enrichment (interaction score)),[1],-1.07
GGCUAGAACUAGUGGAUCCCCCGGCGCCCGGCGGCUCGAGCCCGGGUAAGCUGAAACAGUCUGCAUGCCGCCGGGCGCCAUGCCUGCAGGUCGACUCUAGAAAACAUG,binding signal (log2 enrichment (interaction score)),[1],-1.47
same,binding signal (log2 enrichment (interaction score)),[2],-6.7
GGCUAGAACUAGUGGAUCCCCCGGCGCCCGGCGGCUCGAGCCCGGGUAAGGGAGUGGCGUCUGCAUGCCGCCGGGCGCCAUGCCUGCAGGUCGACUCUAGAAAACAUG,binding signal (log2 enrichment (interaction score)),[5],< -2.6
GGCUAGAACUAGUGGAUCCCCCGGCGCCCGGCGGCUCGAGCCCGGGUAAGGUGUUAAAGUCUGCAUGCCGCCGGGCGCCAUGCCUGCAGGUCGACUCUAGAAAACAUG,binding signal (log2 enrichment (interaction score)),[5],-3.26
GGCUAGAACUAGUGGAUCCCCCGGCGCCCGGCGGCUCGAGCCCGGGUAAGUUGUAGAAGUCUGCAUGCCGCCGGGCGCCAUGCCUGCAGGUCGACUCUAGAAAACAUG,binding signal (log2 enrichment (interaction score)),[5],-2.19
same,binding signal (log2 enrichment (interaction score)),[2],< -7.92
GGCUAGAACUAGUGGAUCCCCCGGCGCCCGGCGGCUCGAGCCCGGGUAAGAGGAAUACGUCUGCAUGCCGCCGGGCGCCAUGCCUGCAGGUCGACUCUAGAAAACAUG,binding signal (log2 enrichment (interaction score)),[5],-3.02
same,binding signal (log2 enrichment (interaction score)),[2],< -7.6
GGCUAGAACUAGUGGAUCCCCCGGCGCCCGGCGGCUCGAGCCCGGGUAAGAGUAAACCGUCUGCAUGCCGCCGGGCGCCAUGCCUGCAGGUCGACUCUAGAAAACAUG,binding signal (log2 enrichment (interaction score)),[5],-2.29
same,binding signal (log2 enrichment (interaction score)),[2],-7.9
GGCUAGAACUAGUGGAUCCCCCGGCGCCCGGCGGCUCGAGCCCGGGUAAGUGGGCGUCGUCUGCAUGCCGCCGGGCGCCAUGCCUGCAGGUCGACUCUAGAAAACAUG,binding signal (log2 enrichment (interaction score)),[5],-2.38
same,binding signal (log2 enrichment (interaction score)),[2],-7.08
GGCUAGAACUAGUGGAUCCCCCGGCGCCCGGCGGCUCGAGCCCGGGUAAGUUGACAACGUCUGCAUGCCGCCGGGCGCCAUGCCUGCAGGUCGACUCUAGAAAACAUG,binding signal (log2 enrichment (interaction score)),[5],-2.35
GGCUAGAACUAGUGGAUCCCCCGGCGCCCGGCGGCUCGAGCCCGGGUAAGACAAGCUCGUCUGCAUGCCGCCGGGCGCCAUGCCUGCAGGUCGACUCUAGAAAACAUG,binding signal (log2 enrichment (interaction score)),[1],< -1.17
same,binding signal (log2 enrichment (interaction score)),[6],-2.32
GGCUAGAACUAGUGGAUCCCCCGGCGCCCGGCGGCUCGAGCCCGGGUAAGUAUGGCUCGUCUGCAUGCCGCCGGGCGCCAUGCCUGCAGGUCGACUCUAGAAAACAUG,binding signal (log2 enrichment (interaction score)),[5],-2.91
GGCUAGAACUAGUGGAUCCCCCGGCGCCCGGCGGCUCGAGCCCGGGUAAGUGAGCCUAGUCUGCAUGCCGCCGGGCGCCAUGCCUGCAGGUCGACUCUAGAAAACAUG,binding signal (log2 enrichment (interaction score)),[5],< -2.3
same,binding signal (log2 enrichment (interaction score)),[2],-6.19
GGCUAGAACUAGUGGAUCCCCCGGCGCCCGGCGGCUCGAGCCCGGGUAAGUUCAAGAUGUCUGCAUGCCGCCGGGCGCCAUGCCUGCAGGUCGACUCUAGAAAACAUG,binding signal (log2 enrichment (interaction score)),[5],-2.61
GGCUAGAACUAGUGGAUCCCCCGGCGCCCGGCGGCUCGAGCCCGGGUAAGGGUAAAUAGUCUGCAUGCCGCCGGGCGCCAUGCCUGCAGGUCGACUCUAGAAAACAUG,binding signal (log2 enrichment (interaction score)),[1],< -1
same,binding signal (log2 enrichment (interaction score)),[2],< -7.8
same,binding signal (log2 enrichment (interaction score)),[7],< -6.1
GGCUAGAACUAGUGGAUCCCCCGGCGCCCGGCGGCUCGAGCCCGGGUAAGUGUGCAAAGUCUGCAUGCCGCCGGGCGCCAUGCCUGCAGGUCGACUCUAGAAAACAUG,binding signal (log2 enrichment (interaction score)),[5],-2.01
same,binding signal (log2 enrichment (interaction score)),[2],-7.29
GGCUAGAACUAGUGGAUCCCCCGGCGCCCGGCGGCUCGAGCCCGGGUAAGUGGGAAUGGUCUGCAUGCCGCCGGGCGCCAUGCCUGCAGGUCGACUCUAGAAAACAUG,binding signal (log2 enrichment (interaction score)),[5],-2.78
same,binding signal (log2 enrichment (interaction score)),[2],-8.81
GGCUAGAACUAGUGGAUCCCCCGGCGCCCGGCGGCUCGAGCCCGGGUAAGCUUUAAUCGUCUGCAUGCCGCCGGGCGCCAUGCCUGCAGGUCGACUCUAGAAAACAUG,binding signal (log2 enrichment (interaction score)),[5],-2.3

# Laid out differently: entries from further up
sequence	measurement	setting	value
GGCUAGAACUAGUGGAUCCCCCGGCGCCCGGCGGCUCGAGCCCGGGUAAGAGGAAUACGUCUGCAUGCCGCCGGGCGCCAUGCCUGCAGGUCGACUCUAGAAAACAUG	binding signal (log2 enrichment (interaction score))	[5]	-3.02
same	binding signal (log2 enrichment (interaction score))	[2]	< -7.6
